The assay can be described thus: qHTS Assay to Find Inhibitors of Chronic Active B-Cell Receptor Signaling. The conditions noted are these: ABC-DLBCL IkBa-CBG/CBR reporter, luminescence ratio (green luciferase fused to IkBa over red control in TMD8 lymphoma cells), 4 h. Put shortly:
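TMD8 human ABC-DLBCL cells with doxycycline-inducible IκBα–green luciferase fusion and unfused red luciferase, in 0.5% FBS medium; compounds up to 46 uM, 4 h at 37C. Green/red luminescence ratio, filter-overlap corrected, fitted to concentration-response curves.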

Where [1] appears, read: measured here: CBR red luminescence, cell number.
Setting [2] is: measured here: IkBa-CBG green luminescence.

The list shows a part of the results. Further columns of the screen follow, without active or inactive calls. Most of these compounds were active or inconclusive in the main read-out, so they are no random draw. Potencies come from curve fits of mixed quality, noted in brackets.

One may read the AC50 as the concentration giving half of the maximal activity seen. Take `COc1cccc(C(=O)N(C)CC(=O)Nc2cccc3ccccc23)c1`: under setting [1], the half-maximal activity concentration (AC50) was 0.184 µM [rising, full curve, poor fit].

In the case of `CCOC(=O)c1c(C)n(C)c2ccc(OCC(O)Cn3nc(C)cc3C)cc12` (stereo unspecified), the AC50 under setting [1] is 9.2 µM [falling, partial curve, poor fit].

Regarding `Cc1onc(-c2ccccc2)c1-c1nc2ccccc2c(=O)o1`, the AC50 by setting is: under setting [1], 29.1 µM [rising, single point]; under setting [2], 8.2 µM [falling, single point].

As for `Cc1cccc(-c2nnc3n2N=C(c2ccccc2Br)CS3)c1`, the AC50 under setting [1] is 31.6 µM [falling, single point].

Consider `CCc1ccc2c(c1)[C@]1(C(=O)N2)[C@@H]2C(=O)N(Cc3ccccc3)C(=O)[C@@H]2[C@@H]2CCCN21`, for which, under setting [1], the half-maximal activity concentration (AC50) was 35.5 µM [falling, single point].

In the case of `O=C(NCc1ccc2c(c1)OCO2)c1ccc(Br)o1`, under setting [1], the AC50 was 5.62 µM [rising, single point].

On to `O=C(NCCc1ccco1)C(=O)NCC1OCCCN1S(=O)(=O)c1ccccc1` (stereo unspecified), for which the AC50 under setting [1] was 20 µM [rising, partial curve, poor fit].

Turning to `COc1cc2ccccc2cc1C(=O)Nc1ccccc1Cl`, under setting [1], the AC50 was 35.5 µM [falling, single point].

In the case of `CN1CC[n+]2cnc3ccccc3c21`, under setting [1], the AC50 was 0.00411 µM [falling, full curve, poor fit].

Regarding `N#Cc1cc2c(nc1SCc1nc3ccccc3[nH]1)CCC2`, under setting [1], the AC50 is 1.78 µM [falling, full curve, poor fit].

Turning to `CCN(C(=O)COc1ccccc1)c1nnc(-c2cccnc2)s1`, the AC50 under setting [1] was 0.164 µM [falling, full curve, poor fit].

As to `COc1ccc(S(=O)(=O)n2c(CCN3CCOCC3)nc3ccccc32)cc1`, the AC50 under setting [1] was 32.6 µM [falling, single point].

With `O=C(Nc1cccc(Cl)c1)Nc1ccc(Cl)cn1`, the AC50 under setting [1] was 23.1 µM [rising, single point].

As for `CCc1cccc(C)c1NC(=O)c1cc(=O)[nH]c2ccc(S(=O)(=O)N3CCOCC3)cc12`, the AC50 under setting [1] was 5.8 µM [rising, full curve].

Consider `Cn1ncc(Cl)c1C(=O)Nc1ccc2c(c1)CCC2`, for which, under setting [1], the AC50 is 3.55 µM [rising, single point].

On to `Cc1cc(C=O)c(C)n1-c1ccc(N2CCCCC2)c([N+](=O)[O-])c1`, for which, under setting [1], the AC50 was 20 µM [falling, partial curve, poor fit].

In the case of `COCC1CCCCN1Cc1cn(-c2ccccc2)nc1-c1ccc2c(c1)OCO2` (stereo unspecified), the AC50 under setting [1] was 4.47 µM [rising, full curve, poor fit].

Turning to `CCOc1ccccc1/C=N/Nc1ccnc(=O)[nH]1`, under setting [1], the AC50 is 7.94 µM [falling, full curve, poor fit].

As to `Cc1c(C(=O)Nc2cccc(F)c2)cnn1-c1ccccc1`, the AC50 under setting [1] was 17.8 µM [falling, single point].

For `CCOc1ccc(Nc2nc(N)nc(CN(C)C3CCCCC3)n2)cc1`, under setting [1], the AC50 was 16.4 µM [rising, single point].

Take `Cc1cc(NC(=O)CSCC(=O)N(c2cccc(Cl)c2)C(C(=O)NC2CCCCC2)c2ccc(O)c(O)c2)no1` (stereo unspecified): the AC50 under setting [1] was 18.4 µM [falling, single point].

Turning to `COc1ccc(-c2ccc(=O)n(CC(=O)Nc3ccccc3C(F)(F)F)n2)cc1`, the AC50 under setting [1] is 35.5 µM [rising, single point].

For the molecule `COc1cccc(/C=N/Nc2ncnc(Cl)c2N)c1O`, the AC50 under setting [1] was 18.4 µM [rising, single point].

Take `Cc1cccc(NC(=O)[C@H](Cc2ccccc2)NC(=O)[C@@H]2Cc3ccccc3CN2)c1`: the AC50 under setting [1] is 2.51 µM [falling, single point].

As for `CC1=CCC2C(=O)N(c3cccc(C(=O)Nc4ccc(Cl)cc4)c3)C(=O)C2C1` (stereo unspecified), the AC50 under setting [1] is 11.2 µM [falling, partial curve, poor fit].

For the molecule `Cc1cc(=O)[nH]c(N=N/C(=N/Nc2ccccc2C)c2ccccc2)n1`, the concentration at half-maximal activity (AC50) under setting [1] was 0.0731 µM [rising, full curve, poor fit].

With `CCOC(=O)c1nnc(-c2ccc(C)cc2)nc1Oc1ccc(Cl)cc1Cl`, under setting [1], the AC50 was 12.6 µM [falling, partial curve, poor fit].

In the case of `O=C(CSc1ncnc2c1nnn2-c1ccc(F)cc1)NCc1ccco1`, the AC50 under setting [1] was 16.4 µM [falling, partial curve].

As for `Cc1c(F)cccc1NS(=O)(=O)c1ccc2c(c1)c(=O)n(C)c(=O)n2C`, the half-maximal activity concentration (AC50) under setting [1] is 12.6 µM [falling, partial curve].

Consider `Cc1ccc(S(=O)(=O)N2CCN(S(C)(=O)=O)C2c2ccccc2)cc1` (stereo unspecified), for which the concentration at half-maximal activity (AC50) under setting [1] is 18.4 µM [falling, partial curve, poor fit].

On to `Cc1ccc(C(=O)OCC(=O)NC2CCCC(C)C2C)cc1S(=O)(=O)N1CCCCC1` (stereo unspecified), for which the AC50 under setting [1] is 14.6 µM [rising, partial curve].

Turning to `O=C(c1cc(-c2cccnc2)nc2ccccc12)N1CCCc2ccccc21`, under setting [1], the AC50 was 2.06 µM [rising, partial curve].

`COc1ccccc1CC(=O)Nc1ccc2c(c1)C(=O)NC2=O`: the AC50 under setting [1] was 7.94 µM [falling, partial curve].

In the case of `C[C@H]1C=C(C(=O)NCc2nc3ccccc3[nH]2)O[C@@H](OCc2ccc(CO)cc2)C1`, the AC50 under setting [1] was 3.16 µM [falling, full curve].

With `CCOC(=O)CSc1ncnc2c1cnn2-c1ccc(C)cc1`, the concentration at half-maximal activity (AC50) under setting [1] was 20.6 µM [falling, single point].

Take `COc1ccc(-c2noc(CCC(=O)NCCc3cccc(C)c3)n2)cc1`: the AC50 under setting [1] is 0.794 µM [rising, full curve, poor fit].

As for `COC(=O)c1ccccc1NC(=O)/C=C/c1cc(OC)c(OC)c(OC)c1`, under setting [2], the AC50 was 20.6 µM [falling, single point].

In the case of `CCCC(CCC(=O)Nc1ccc(S(N)(=O)=O)cc1)C(=O)O` (stereo unspecified), the AC50 under setting [1] is 20.6 µM [falling, single point].

Take `Cc1nc(C)c(C(=O)Nc2ncc([N+](=O)[O-])s2)o1`: the AC50 under setting [1] was 8.91 µM [falling, partial curve].

Turning to `O=C(NCCc1ccccc1)c1ccc2nc(N3CCOCC3)sc2c1`, under setting [1], the AC50 is 0.562 µM [rising, full curve, poor fit].

In the case of `CCOc1ccc(OCC)c(NC(=O)C2CCCN2S(=O)(=O)c2cccc3cccnc23)c1` (stereo unspecified), the AC50 under setting [1] was 2.31 µM [rising, single point].

Take `COC(=O)C(Oc1ccc2c(-c3ccc(OC)cc3)cc(=O)oc2c1)c1ccccc1` (stereo unspecified): under setting [1], the half-maximal activity concentration (AC50) was 9.2 µM [falling, partial curve].

Turning to `Cc1ccnc(N(C(=O)c2cccs2)C(=O)c2cccs2)c1`, the half-maximal activity concentration (AC50) under setting [1] was 20.6 µM [falling, single point].

For the molecule `CCOc1ccccc1N(CC(=O)NCc1ccccc1)C(=O)CCC(=O)Nc1cc(C)ccn1`, the AC50 under setting [1] is 7.94 µM [falling, partial curve].

As to `CCCCn1c(=O)n(CC(O)c2ccccc2)c(=O)c2c1ncn2C1CCCC1` (stereo unspecified), the AC50 under setting [1] was 12.6 µM [falling, partial curve, poor fit].

Consider `O=C(Nc1ccc(Oc2cccnc2)cc1)c1ccccc1Cl`, for which, under setting [1], the AC50 is 9.2 µM [falling, partial curve].

Take `O=C(CSc1nc2ccccc2s1)NNC(=S)Nc1ccccc1`: under setting [1], the AC50 was 11.6 µM [rising, partial curve, poor fit].

For `CC(=O)Nc1ccc(NC(=O)COc2ccc(Cl)cc2Cl)cc1`, under setting [1], the AC50 is 10 µM [rising, partial curve, poor fit].

In the case of `C/C(=N\NC(=O)c1c(Cl)c(C)nn1C)c1cccc(NC(=O)C2CCCC2)c1`, the AC50 under setting [1] is 2.24 µM [falling, partial curve].

For the molecule `CCOC(=O)Cc1csc(SCc2nc3sc4c(c3c(=O)[nH]2)CCC4)n1`, the AC50 under setting [1] was 14.6 µM [falling, partial curve].

Regarding `COc1ccc(CNC(=O)CSCc2ccc(C)cc2)c(OC)c1`, the AC50 under setting [1] was 1 µM [rising, full curve, poor fit].

As for `O=C(NCC(c1ccc2c(c1)OCO2)N1CCOCC1)C(=O)Nc1ccc(Cl)cc1` (stereo unspecified), under setting [1], the AC50 is 1.58 µM [falling, full curve, poor fit].

`CC(=O)CC(c1ccccc1)c1c(O)c2ccccc2oc1=O` (stereo unspecified): under setting [1], the AC50 was 2.24 µM [rising, full curve, poor fit].

On to `CC1=C/C(=C(\c2cc(C)c(O)c(Br)c2)c2ccccc2S(=O)(=O)O)C=C(Br)C1=O`, for which the AC50 under setting [1] was 12.6 µM [falling, partial curve].

`N/C(=N\OC(=O)c1ccc(Cl)cc1)c1[nH]ncc1Br`: the AC50 under setting [1] was 8.91 µM [falling, partial curve, poor fit].

Turning to `CCC(NC(=O)CCc1c(C)c2cc3c4c(oc3cc2oc1=O)CCCC4)C(=O)O` (stereo unspecified), the AC50 reads like this: under setting [1], 15.8 µM [rising, partial curve]; under setting [2], 12.6 µM [falling, partial curve].

As to `COc1ccc(/C=C/C(=O)NC(=S)NCc2ccccc2)cc1OC`, the AC50 under setting [1] was 35.5 µM [rising, single point].

For `Cc1nc2nc(NC(=O)c3ccco3)nn2c(C)c1Cl`, under setting [1], the AC50 is 3.55 µM [falling, partial curve].

With `COc1ccc(NC(=O)CN2CCC3(O)CCCCC3C2c2cc(OC)ccc2OC)cc1` (stereo unspecified), the AC50 by setting is: under setting [1], 35.5 µM [falling, single point]; under setting [2], 25.1 µM [rising, partial curve, poor fit].

As for `COC(=O)c1ccc2c(=O)n(Cc3ccco3)c(SCC(=O)Nc3ccc(C)c(Cl)c3)nc2c1`, under setting [1], the AC50 was 4.11 µM [falling, partial curve, poor fit].

With `CC(Sc1nc(N)cc(N)n1)C(=O)Nc1ccc(N2CCOCC2)cc1` (stereo unspecified), the half-maximal activity concentration (AC50) under setting [1] was 0.326 µM [rising, full curve].

Turning to `COc1cc2c(cc1OC)CN(CC(=O)Nc1ccc(C)cc1)CC2`, the AC50 under setting [1] is 2.91 µM [rising, partial curve, poor fit].

As to `COc1ccc(-c2nnc(SCC(=O)NCc3cccs3)n2C(C)C)cc1`, the half-maximal activity concentration (AC50) under setting [1] was 16.4 µM [rising, partial curve, poor fit].

These data come from PubChem BioAssay AID493014 (National Center for Advancing Translational Sciences (NCATS), 2011).
